## Assay results

By UniProt entry, the sequences of proteins in these tests, tags left out.
UniProt P04062, whole entry, target on record: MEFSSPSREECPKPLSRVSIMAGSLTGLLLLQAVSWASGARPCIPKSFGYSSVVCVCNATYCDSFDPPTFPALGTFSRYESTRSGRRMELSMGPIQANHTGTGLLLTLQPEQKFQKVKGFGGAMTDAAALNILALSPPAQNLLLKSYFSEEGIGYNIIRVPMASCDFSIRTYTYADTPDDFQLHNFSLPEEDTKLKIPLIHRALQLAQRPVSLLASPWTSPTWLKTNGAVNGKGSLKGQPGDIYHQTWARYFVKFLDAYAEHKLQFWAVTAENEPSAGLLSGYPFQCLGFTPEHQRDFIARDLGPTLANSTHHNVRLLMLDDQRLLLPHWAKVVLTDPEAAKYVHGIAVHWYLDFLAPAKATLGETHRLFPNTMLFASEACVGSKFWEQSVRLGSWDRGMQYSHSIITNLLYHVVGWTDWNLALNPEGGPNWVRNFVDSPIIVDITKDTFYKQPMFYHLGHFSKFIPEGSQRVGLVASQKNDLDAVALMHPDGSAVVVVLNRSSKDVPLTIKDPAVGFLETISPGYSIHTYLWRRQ

Source: PubChem BioAssay AID360 (NCATS, 2006).

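Purified human glucocerebrosidase was tested for inhibition by reading red fluorescence from a resorufin glucoside substrate after 20 minutes at room temperature.
Each compound was run as a titration series spanning about 0.6 nM up to 50 µM final.
The number is the fitted half-maximal concentration (AC50); a lower value means a more potent inhibitor.
The record treats a '>' qualifier as no measurable activity (inactive); no explicit numeric cut-off is stated.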

Values are in µM.
All entries here are filed as inactive.
These are entries filed as inactive; the hits of the assay are not listed here.

SMILES,potency (µM)
COc1ccccc1NC(=O)N1CCN(c2ccccc2F)CC1,>76.9
CCOC(=O)c1ccc(COC(=O)CCc2nc3ccccc3[nH]c2=O)o1,>76.9
CC1CCCN(C(=O)CSCC(=O)N=c2sc3ccccc3n2C)C1 (stereo not given),>76.9
COc1ccc(N2CCN(C(=O)CSc3nc4cc(OC)c(OC)cc4cc3C#N)CC2)cc1,>76.9
COCC(C)NS(=O)(=O)c1ccc(NC(=O)C(Cc2ccccc2)NC(N)=O)cc1 (stereo not given),>76.9
Cc1cc(C)c2nc(N3CCC(C(=O)N4CCN(c5ncccn5)CC4)CC3)sc2c1,>76.9
CC(=O)N1CCc2cc(S(=O)(=O)NCCC(=O)Nc3cccc(C)c3)ccc21,>76.9
O=C(NC1CCCC1)C(c1ccco1)N(Cc1ccccc1)C(=O)c1csnn1 (stereo not given),>76.9
CCOC(=O)C1CCCN(C(=O)C2CCN(S(=O)(=O)N3CCC4(CC3)OCCO4)CC2)C1 (stereo not given),>76.9
Cc1nc2ncnn2c(C)c1CCC(=O)O,>76.9
COc1cccc(-n2nnc3c(=O)n(Cc4ccc(F)cc4)cnc32)c1,>76.9
CN(C)Cc1cn(CCC(=O)O)c2ccccc12,>76.9
CCCC1(CCC)NC(=O)N(CC(=O)Nc2ccccc2OC)C1=O,>76.9
c1ccc(-n2c(SCc3ccncc3)nnc2-c2ccco2)cc1,>76.9
O=C(OCc1cc2ccccc2[nH]c1=O)c1ccncc1,>76.9
Cc1ccc(CNC(=O)C2CCCN(S(=O)(=O)c3cccnc3)C2)cc1 (stereo not given),>76.9
COc1ccc(C2C(=O)N(C3CCCCC3)CC(=O)N2Cc2ccco2)cc1 (stereo not given),>76.9
COc1ccc2nc(-n3c(C)ccc3C)sc2c1,>76.9
COc1ccc(OC)c(NC(=O)Cc2nn(C)c(=O)c3ccccc23)c1,>76.9
Cc1cccc(OCCCC(=O)Nc2ccc(S(=O)(=O)Nc3onc(C)c3C)cc2)c1,>76.9
CCC(=O)N=C1SC2CS(=O)(=O)CC2N1c1cccc(OC)c1 (stereo not given),>76.9
CC(C)CC(NC(=O)OC(C)(C)C)C(=O)NC(C(=O)N1CCCC1C(N)=O)C(C)C (stereo not given),>76.9
CN1/C(=C\C(=O)c2ccco2)c2ccccc2CC1(C)C,>76.9
CSc1cccc(NC(=O)Cn2cccc2)c1,>76.9
Cc1nc2ccccc2cc1C(=O)NCc1ccco1,>76.9
CC1(C)CC2CC(C)(CN2C(=O)c2cccs2)C1 (stereo not given),>76.9
Cc1ccc(C(=O)CCNc2ccc(Br)cc2)o1,>76.9
CCc1cc2c(=O)n(Cc3ccco3)c(SCc3c(C)noc3C)nc2s1,>76.9
O=C(CCC1CCCCC1)NCc1ccncc1,>76.9
Cc1nc(SCc2ccccc2C)n[nH]1,>76.9
CC(Oc1ccccc1Cl)C(=O)N(Cc1ccco1)C1CCS(=O)(=O)C1 (stereo not given),>76.9
COC(=O)Nc1ncc(CN2C(=O)c3ccccc3C2=O)s1,>76.9
COc1cc2c(=O)n(Cc3ccccc3)c(=O)n(CC(=O)C(C)(C)C)c2cc1OC,>76.9
COCCNC(=O)CCn1nc(-c2ccc(Cl)cc2)ccc1=O,>76.9
CCN(CC)CC(=O)N(CC(=O)Nc1c(C)cc(C)cc1C)C1CCCCC1,>76.9
CN1CCN(C(=O)c2cc(-c3cccc(Cl)c3)on2)CC1,>76.9
COC(=O)C(C)Sc1nnc(SC(C)C(=O)OC)s1 (stereo not given),>76.9
COc1cccc(C(=O)N2CCN(Cc3ccco3)CC2)c1OC,>76.9
CC(=O)Nc1ccc(S(=O)(=O)NCc2cn3ccsc3n2)cc1,>76.9
CCc1c(C)sc(NC(=O)c2ccco2)c1C(=O)N1CCOCC1,>76.9
CCOC(=O)C1=C(O)C(=O)N(c2ccc(S(N)(=O)=O)cc2)C1c1ccc(OC)cc1OC (stereo not given),>76.9
CC(=O)Nc1cccc(NC(=O)CSc2nnc(Cc3cccn3C)n2CCc2ccccc2)c1,>76.9
COc1ccc(OC)c(S(=O)(=O)N2CCC(C(=O)NCc3ccccc3)CC2)c1,>76.9
Cc1cc(Nc2ccccc2N2CCOCC2)n2ncnc2n1,>76.9
C=CCn1c(=O)c2ccccc2n2c(Sc3nnnn3-c3ccccc3)nnc12,>76.9
CCc1ccc(NC(=O)Cn2c(=O)n(CCCC(=O)NCc3ccco3)c(=O)c3ccccc32)cc1,>76.9
COc1ccccc1OCC(O)Cn1nc(C)cc1C (stereo not given),>76.9
CCc1cc2c(-c3ccccc3)cc(=O)oc2c(CN2CCOCC2)c1O,>76.9
CC(C)OC(=O)CCc1nc2ccccc2[nH]c1=O,>76.9
CC(C)(C)OCC(NC(=O)C(CC(N)=O)NC(=O)OC(C)(C)C)C(=O)OC(C)(C)C (stereo not given),>76.9
Clc1ccc(Cn2ncc3c(N4CCOCC4)ncnc32)cc1,>76.9
COC(=O)c1ccc(CSc2nc3scc(-c4cccs4)c3c(=O)[nH]2)o1,>76.9
Cc1ccc(-n2ncc3c2ncn2c(C)nnc32)cc1C,>76.9
Cc1cc(C(=O)OCC(=O)NCc2ccco2)c(C)n1-c1ccccc1,>76.9
CN(C(=O)c1cccnc1)c1nnc(-c2ccccn2)s1,>76.9
CCOC(=O)N1CCN(C(=O)C(C)n2nc(C)n3c(cc4sccc43)c2=O)CC1 (stereo not given),>76.9
Cc1cnc(C(=O)OCC(=O)N2c3ccccc3NC(=O)C2(C)C)cn1,>76.9
CS(=O)(=O)N(CCc1ccccc1)CC(=O)N1CCN(Cc2ccccc2)CC1,>76.9
N#Cc1cn(Cc2ccccc2)c2ccccc12,>76.9
COc1ccc(C(OC(=O)c2c(C)noc2C)C(=O)NC2CCCC2)cc1 (stereo not given),>76.9
Cc1ccc(NC(=O)Cn2cnc3c(=O)n(C)c(=O)n(C)c32)c(C)c1,>76.9
CC(C)c1nc(N2CCN(C(=O)c3ccccc3)CC2)c(C#N)c2c1COC(C)(C)C2,>76.9
CCOC(=O)c1[nH]c(C)c(C(=O)Nc2ccc(C)c(Cl)c2)c1C,>76.9
COC(=O)C1CCN(C(=O)c2ccc(Cl)c(S(=O)(=O)NCc3cccnc3)c2)CC1,>76.9
CCOC(=O)CCCc1sc(N)nc1-c1[nH]c(=O)[nH]c1C,>76.9
CC(C)CC(=O)NC1(C(F)(F)F)C(=O)Nc2c1c(=O)n(C)c(=O)n2C (stereo not given),>76.9
Cn1cccc1Cc1nnc(SCC(=O)N2CCN(c3ccccc3)CC2)n1-c1ccc(F)cc1,>76.9
CCCCn1nnnc1NCc1cc(OC)c(OC)cc1OC,>76.9
CC(C)c1nnc(NC(=O)CCCC(=O)O)s1,>76.9
COC(=O)c1c(NC(=O)CSc2nnnn2-c2ccc3c(c2)OCO3)sc(C)c1C,>76.9
O=C(O)COc1ccccc1C1C2C(=O)N(c3ccccc3)C(=O)C2ON1c1ccccc1 (stereo not given),>76.9
Cc1ccccc1CSc1nnc(C)n1N,>76.9
CCOC(=O)c1[nH]c2ccc(OC)cc2c1NC(=O)OC,>76.9
O=C(NCc1ccco1)C1(c2ccccc2)CCCC1,>76.9
CCn1cc(C(=O)NCc2ccc3c(c2)OCO3)c2cc(OC)c(OC)cc2c1=O,>76.9
O=C(c1cc2sccc2n1Cc1ccccc1)N1CCc2ccccc21,>76.9
C=CCc1ccc(OCC(O)CN2CCCCC2)c(OC)c1 (stereo not given),>76.9
O=C(C1CCCN1C(=O)c1cccs1)N1CCc2ccccc21 (stereo not given),>76.9
COc1ccc(-c2c3c(=O)n(C)c(=O)n(C)c3cn2-c2cccc(OC)c2)cc1,>76.9
CCOCC(=O)Nc1nnc(C)s1,>76.9
CCS(=O)(=O)N1CCCC(C(=O)NCc2cccc(OC)c2)C1 (stereo not given),>76.9
O=C(O)CSC1CC(=O)N(c2ccc(Cl)c(Cl)c2)C1=O (stereo not given),>76.9
CCCc1nnc(SCC(=O)N2CCCC(C)C2)n1CCCOC (stereo not given),>76.9
COc1cc(-n2cnnn2)ccc1S(=O)(=O)N1CCOCC1,>76.9
CCCOc1ccccc1C1CC(=O)Nc2cc3c(cc21)OCO3 (stereo not given),>76.9

Some entries from above, unchanged:

Cn1cccc1Cc1nnc(SCC(=O)N2CCN(c3ccccc3)CC2)n1-c1ccc(F)cc1 gave potency >76.9 µM.
CN(C(=O)c1cccnc1)c1nnc(-c2ccccn2)s1 gave potency >76.9 µM.
COc1cc2c(=O)n(Cc3ccccc3)c(=O)n(CC(=O)C(C)(C)C)c2cc1OC gave potency >76.9 µM.
Clc1ccc(Cn2ncc3c(N4CCOCC4)ncnc32)cc1 gave potency >76.9 µM.
Cc1cccc(OCCCC(=O)Nc2ccc(S(=O)(=O)Nc3onc(C)c3C)cc2)c1 gave potency >76.9 µM.
COCCNC(=O)CCn1nc(-c2ccc(Cl)cc2)ccc1=O gave potency >76.9 µM.
CCOC(=O)c1ccc(COC(=O)CCc2nc3ccccc3[nH]c2=O)o1 gave potency >76.9 µM.
CC1CCCN(C(=O)CSCC(=O)N=c2sc3ccccc3n2C)C1 (stereo not given) gave potency >76.9 µM.
Cc1ccc(CNC(=O)C2CCCN(S(=O)(=O)c3cccnc3)C2)cc1 (stereo not given) gave potency >76.9 µM.
Cc1nc(SCc2ccccc2C)n[nH]1 gave potency >76.9 µM.
O=C(c1cc2sccc2n1Cc1ccccc1)N1CCc2ccccc21 gave potency >76.9 µM.